Test results from US6864396B2, “Substituted pentacene semiconductors” (3M Innovative Properties Company, priority 2001, dated 2005).

Assays:
[1] = Performance testing of organic thin film transistors (OTFTs); settings: for Charge-Carrier Mobility: room temperature in air
[2] = Solvent resistance of OTFT semiconductor layer (drops of 2-propanol); settings: for Physical changes of semiconductor layer after 2-propanol: on both silicon oxide and aluminum oxide

With `CCCCCCc1ccc2cc3cc4cc5cc(CCCCCC)ccc5cc4cc3cc2c1` [2,9-dihexylpentacene, 2,9-Dihexylpentacene] the “On/Off Ratio” value ([1]; gate dielectric SiO2) was 3.15E+03, the “Sub-Threshold Slope” value ([1]; gate dielectric SiO2) was 4.652 V/decade and the “Threshold Voltage” value ([1]; gate dielectric SiO2) was “+1.28 V”. For the same molecule, the “Charge-Carrier Mobility” value ([1]; gate dielectric SiO2, averaged) was 0.251 cm^2/Vs.
In the case of `Cc1ccc2cc3cc4cc5cc(C)ccc5cc4cc3cc2c1` [2,9-dimethylpentacene, 2,9-Dimethylpentacene], the “On/Off Ratio” value ([1]; gate dielectric Al2O3) is reported as 3.53E+04, the “Sub-Threshold Slope” value ([1]; gate dielectric Al2O3) is reported as 2.241 V/decade and the “Threshold Voltage” value ([1]; gate dielectric Al2O3) is reported as “+0.01 V”. The “Charge-Carrier Mobility” value ([1]; gate dielectric Al2O3) was 0.680 cm^2/Vs, the “On/Off Ratio” value ([1]; gate dielectric SiO2) was 1.93E+05 and the “Sub-Threshold Slope” value ([1]; gate dielectric SiO2) was 3.318 V/decade. The “Threshold Voltage” value ([1]; gate dielectric SiO2) was −11.51 V, the “Charge-Carrier Mobility” value ([1]; gate dielectric SiO2, averaged) was 0.344 cm^2/Vs and the “Mobility after 2-propanol” value ([2]; on aluminum oxide) was “unchanged”. The “Physical changes of semiconductor layer after 2-propanol” value [2] was “appeared unchanged” and the “Mobility after 2-propanol” value ([2]; on silicon oxide) was “decreased by a factor of about two”.
For `c1ccc2cc3cc4cc5ccccc5cc4cc3cc2c1` [pentacene], the “On/Off Ratio” value ([1]; gate dielectric Al2O3) was 1.88E+07, the “Sub-Threshold Slope” value ([1]; gate dielectric Al2O3) was 1.72 V/decade and the “Threshold Voltage” value ([1]; gate dielectric Al2O3) was −6.71 V. For the same molecule, the “Charge-Carrier Mobility” value ([1]; gate dielectric Al2O3) was 0.972 cm^2/Vs, the “On/Off Ratio” value ([1]; gate dielectric SiO2) was 1.66E+05 and the “Sub-Threshold Slope” value ([1]; gate dielectric SiO2) was 4.12 V/decade. For the same molecule, the “Threshold Voltage” value ([1]; gate dielectric SiO2) was −8.46 V, the “Charge-Carrier Mobility” value ([1]; gate dielectric SiO2, averaged) was 0.297 cm^2/Vs and the “Physical changes of semiconductor layer after 2-propanol” value [2] was “numerous cracks”. For the same molecule, the “OTFT device function after 2-propanol” value ([2]; silicon oxide and aluminum oxide) was “not functional”.
